# Test results: the supplement of paper PMC7661543
# ± gives the standard deviation of the averaged measurements. Differences between knockout arms are mostly noise.
# Tested on: HCC-38
# Experiment: relative cell number vs DMSO control (72 h) (% of DMSO); higher = less growth inhibition (more cells)
# Method: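 QMAP-Seq: a pool of 5 breast cancer cell lines (ZR-75-1, SKBR3, HCC-38, MDA-MB-231, BT-20), each carrying 12 doxycycline-inducible Cas9 sgRNA perturbations (11 knockouts plus non-targeting sgNT), was treated with compounds for 72 h at four 10-fold doses (10 nM-10 uM or 1 nM-1 uM range). Barcodes were amplified and sequenced, and cell number was interpolated from 293T spike-in standard curves. The result is expressed as % of the median of DMSO wells. Two biological replicates.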
# [1] = sgRNA knockout: sgATF3, 1000 nM
# [2] = sgRNA knockout: sgATF3, 10000 nM
# [3] = sgRNA knockout: sgATF4, 1000 nM
# [4] = sgRNA knockout: sgATF4, 10000 nM
# [5] = sgRNA knockout: sgATF6, 1000 nM
# [6] = sgRNA knockout: sgATF6, 10000 nM
# [7] = sgRNA knockout: sgATG7, 1000 nM
# [8] = sgRNA knockout: sgATG7, 10000 nM
# [9] = sgRNA knockout: sgERN1, 1000 nM
# [10] = sgRNA knockout: sgERN1, 10000 nM
# [11] = sgRNA knockout: sgHSF1, 1000 nM
# [12] = sgRNA knockout: sgHSF1, 10000 nM
# [13] = sgRNA knockout: sgHSF2, 1000 nM
# [14] = sgRNA knockout: sgHSF2, 10000 nM
# [15] = sgRNA knockout: sgKEAP1, 100 nM
# [16] = sgRNA knockout: sgKEAP1, 1000 nM
# [17] = sgRNA knockout: sgKEAP1, 10000 nM
# [18] = sgRNA knockout: sgNFE2L2, 10 nM
# [19] = sgRNA knockout: sgNFE2L2, 100 nM
# [20] = sgRNA knockout: sgNFE2L2, 1000 nM
# [21] = sgRNA knockout: sgNFE2L2, 10000 nM
# [22] = sgRNA knockout: sgSLC35F2, 10 nM
# [23] = sgRNA knockout: sgSLC35F2, 100 nM
# [24] = sgRNA knockout: sgSLC35F2, 1000 nM
# [25] = sgRNA knockout: sgSLC35F2, 10000 nM
# [26] = sgRNA knockout: sgXBP1, 1000 nM
# [27] = sgRNA knockout: sgXBP1, 10000 nM
smiles,measurement,setting,value
CC(C)(C)c1nc(-c2cccc(NS(=O)(=O)c3c(F)cccc3F)c2F)c(-c2ccnc(N)n2)s1 [Dabrafenib],relative cell number,"sgRNA knockout: sgATF3, 10 nM",151 ± 45
same,relative cell number,"sgRNA knockout: sgATF3, 100 nM",103 ± 3.4
same,relative cell number,[1],101 ± 12
same,relative cell number,[2],95 ± 9.8
same,relative cell number,"sgRNA knockout: sgATF4, 10 nM",147 ± 26
same,relative cell number,"sgRNA knockout: sgATF4, 100 nM",94.8 ± 12
same,relative cell number,[3],97.2 ± 10
same,relative cell number,[4],92.4 ± 1.3
same,relative cell number,"sgRNA knockout: sgATF6, 10 nM",131 ± 31
same,relative cell number,"sgRNA knockout: sgATF6, 100 nM",115 ± 6.6
same,relative cell number,[5],118 ± 12
same,relative cell number,[6],95.7 ± 18
same,relative cell number,"sgRNA knockout: sgATG7, 10 nM",128 ± 37
same,relative cell number,"sgRNA knockout: sgATG7, 100 nM",101 ± 11
same,relative cell number,[7],98 ± 9.3
same,relative cell number,[8],102 ± 12
same,relative cell number,"sgRNA knockout: sgERN1, 10 nM",145 ± 38
same,relative cell number,"sgRNA knockout: sgERN1, 100 nM",107 ± 13
same,relative cell number,[9],116 ± 15
same,relative cell number,[10],92.9 ± 15
same,relative cell number,"sgRNA knockout: sgHSF1, 10 nM",131 ± 14
same,relative cell number,"sgRNA knockout: sgHSF1, 100 nM",122 ± 2.7
same,relative cell number,[11],112 ± 3.5
same,relative cell number,[12],94.6 ± 20
same,relative cell number,"sgRNA knockout: sgHSF2, 10 nM",141 ± 20
same,relative cell number,"sgRNA knockout: sgHSF2, 100 nM",112 ± 3.4
same,relative cell number,[13],104 ± 28
same,relative cell number,[14],86.9 ± 10
same,relative cell number,"sgRNA knockout: sgKEAP1, 10 nM",149 ± 3.6
same,relative cell number,[15],111 ± 13
same,relative cell number,[16],101 ± 24
same,relative cell number,[17],121 ± 14
same,relative cell number,[18],133 ± 38
same,relative cell number,[19],92.6 ± 14
same,relative cell number,[20],96.2 ± 2
same,relative cell number,[21],95 ± 9.2
same,relative cell number,[22],140 ± 30
same,relative cell number,[23],102 ± 1.1
same,relative cell number,[24],101 ± 6.7
same,relative cell number,[25],101 ± 1.5
same,relative cell number,"sgRNA knockout: sgXBP1, 10 nM",149 ± 42
same,relative cell number,"sgRNA knockout: sgXBP1, 100 nM",103 ± 3.5
same,relative cell number,[26],105 ± 24
same,relative cell number,[27],95.2 ± 4.3
O=P1(NCCCl)OCCCN1CCCl (stereo not drawn) [Ifosfamide],relative cell number,"sgRNA knockout: sgATF3, 10 nM",112.3 ± 0.95
same,relative cell number,"sgRNA knockout: sgATF3, 100 nM",98.7 ± 23
same,relative cell number,[1],123 ± 13
same,relative cell number,[2],95.1 ± 33
same,relative cell number,"sgRNA knockout: sgATF4, 10 nM",113 ± 7.2
same,relative cell number,"sgRNA knockout: sgATF4, 100 nM",103 ± 28
same,relative cell number,[3],118 ± 20
same,relative cell number,[4],95.6 ± 19
same,relative cell number,"sgRNA knockout: sgATF6, 10 nM",91.4 ± 18
same,relative cell number,"sgRNA knockout: sgATF6, 100 nM",93.2 ± 8.9
same,relative cell number,[5],112 ± 5
same,relative cell number,[6],106 ± 14
same,relative cell number,"sgRNA knockout: sgATG7, 10 nM",118 ± 2.1
same,relative cell number,"sgRNA knockout: sgATG7, 100 nM",91 ± 8.9
same,relative cell number,[7],107 ± 15
same,relative cell number,[8],87.8 ± 12
same,relative cell number,"sgRNA knockout: sgERN1, 10 nM",104 ± 1.4
same,relative cell number,"sgRNA knockout: sgERN1, 100 nM",96.7 ± 21
same,relative cell number,[9],113 ± 10
same,relative cell number,[10],106 ± 31
same,relative cell number,"sgRNA knockout: sgHSF1, 10 nM",105 ± 40
same,relative cell number,"sgRNA knockout: sgHSF1, 100 nM",88.6 ± 17
same,relative cell number,[11],92.8 ± 9.8
same,relative cell number,[12],108.8 ± 0.15
same,relative cell number,"sgRNA knockout: sgHSF2, 10 nM",102 ± 15
same,relative cell number,"sgRNA knockout: sgHSF2, 100 nM",99.8 ± 17
same,relative cell number,[13],120 ± 28
same,relative cell number,[14],92.3 ± 17
same,relative cell number,"sgRNA knockout: sgKEAP1, 10 nM",89.2 ± 23
same,relative cell number,[15],122 ± 19
same,relative cell number,[16],95 ± 2
same,relative cell number,[17],106 ± 9.8
same,relative cell number,[18],111 ± 1.4
same,relative cell number,[19],92.7 ± 23
same,relative cell number,[20],116 ± 15
same,relative cell number,[21],91 ± 17
same,relative cell number,[22],111 ± 4.1
same,relative cell number,[23],93.5 ± 12
same,relative cell number,[24],115 ± 14
same,relative cell number,[25],100 ± 23
same,relative cell number,"sgRNA knockout: sgXBP1, 10 nM",108 ± 2.7
same,relative cell number,"sgRNA knockout: sgXBP1, 100 nM",91.6 ± 24
same,relative cell number,[26],106 ± 12
same,relative cell number,[27],89.4 ± 16

# Reformatted: entries from further up.
smiles | measurement | setting | value
CC(C)(C)c1nc(-c2cccc(NS(=O)(=O)c3c(F)cccc3F)c2F)c(-c2ccnc(N)n2)s1 [Dabrafenib] | relative cell number | [1] | 101 ± 12
same | relative cell number | [2] | 95 ± 9.8
same | relative cell number | [3] | 97.2 ± 10
same | relative cell number | sgRNA knockout: sgHSF1, 10 nM | 131 ± 14
same | relative cell number | sgRNA knockout: sgHSF1, 100 nM | 122 ± 2.7
same | relative cell number | [13] | 104 ± 28
same | relative cell number | sgRNA knockout: sgKEAP1, 10 nM | 149 ± 3.6
same | relative cell number | [16] | 101 ± 24
same | relative cell number | [17] | 121 ± 14
same | relative cell number | [18] | 133 ± 38
same | relative cell number | [24] | 101 ± 6.7
O=P1(NCCCl)OCCCN1CCCl (stereo not drawn) [Ifosfamide] | relative cell number | [2] | 95.1 ± 33
same | relative cell number | sgRNA knockout: sgATF4, 10 nM | 113 ± 7.2
same | relative cell number | [3] | 118 ± 20
same | relative cell number | [8] | 87.8 ± 12
same | relative cell number | sgRNA knockout: sgERN1, 100 nM | 96.7 ± 21
same | relative cell number | [25] | 100 ± 23
same | relative cell number | sgRNA knockout: sgXBP1, 10 nM | 108 ± 2.7
same | relative cell number | sgRNA knockout: sgXBP1, 100 nM | 91.6 ± 24
